At least one structure is not confirmed: it was looked up by name or label, or the drawing left a doubt.
System: conscious rat
Test: Direct monitoring of aortic blood pressure and heart rate from conscious rats
Assay type: in vivo
Details: doses 1, 3, 10, and 30 mg/kg
Excerpt: A method for the direct monitoring of aortic blood pressure and heart rate from conscious rats
The continuous monitoring of pulsatile blood pressure from unrestrained conscious rats surgically equipped with polyethylene cannulas was accomplished by means of a computer assisted data capture scheme (CADCS). The basic elements of the methodology are the cannulation procedure and the CADCS. Method
Cannulation Procedure: Rats were anesthetized with Telazol (1:1 tiletamine HCI and zolazepam HCI; WU PD, Ann Arbor, MI) 20-40 mg/kg IM and the descending aorta exposed via a midline incision. Cannulus fabricated from polyethylene tubing (Clay Adams, Parsippany, NJ) were inserted into the aorta via an undersized puncture hole below the renal arteries. The puncture hole was made by a 23 G disposable needle with a section of the aorta clamped off above and below the puncture site. The cannulas, consisting of a PE100 (0.86 mm ID) body and a PE50 (0.58 mm ID) tip, were attached to a trocar, inserted through the psoas muscle, and passed subcutaneously along the midline of the back and externalized between the ears. […]
CADCS: The pulsatile blood pressure and heart rate of each of 32 rats was monitored every minute by means of two in-laboratory microcomputers communicating directly with a data concentrator computer. […]

SMILES: O=C1CCC(c2ccc(-n3cncn3)cc2)=NN1 [Example 9, 4,5-Dihydro-6-[4-(1H-triazol-1-yl)phenyl]-3(2H)-pyridazinone]
- aortic blood pressure: significant reduction

From patent EP0075436B1, “Substituted 4,5-dihydro-6-(substituted)-phenyl-3(2H)-pyridazinones and 6-(substituted)phenyl-3(2H)-pyridazinones” (WARNER-LAMBERT COMPANY, priority 1981, dated 1983)
